Assay results as given in patent publication US20160051652A1.
These are yes or no findings as the source states them, for the method shown. A result given as binding can be weak or reduced; the word gives no strength.

Experiments:
[1] = biological target: human HLA-A*2402 molecule (human); assay: MHC stabilization assay, T2-2402 cells, 10 µM peptide, flow cytometry
[2] = biological target: human HLA-A*2402 molecule (human); assay: MHC stabilization assay, T2-2402 cells, 10 µM peptide, flow cytometry of surface HLA-A24

| binding [1] | binding [2] | Binder |
| --- | --- | --- |
| binds | binds | AFGRVFSGL [eEF2412-420 peptide] |
| binds | binds | AYLPVNESF [eEF2786-794 peptide] |
| binds | binds | RFYAFGRVF [eEF2409-417 peptide] |
| binds | binds | RFDVHDVTL [eEF2701-709 peptide] |
